# Values of other authors, collected in patent publication US20100160324A1, “PYRAZOLE DERIVATIVES AS THAT MODULATE THE ACTIVITY OF CDK, GSK AND AURORA KINASES” (ASTEX THERAPEUTICS LIMITED, priority 2004, published 2010).
# For at least one compound, name, drawing or mass did not settle the structure.
# Test system: symptomatic CLL patients
# Conditions: initial therapy, compared with alkylator-based therapies (17 months); cited from earlier work
smiles,measurement,value
Nc1nc(F)nc2c1ncn2[C@@H]1O[C@H](CO)[C@@H](O)[C@@H]1O [fludarabine],duration of progression-free survival,33 months
